Measured values: patent US5883102A, “Pharmaceutically active compounds” (Astra Pharmaceuticals Limited, priority 1995, dated 1999)
Structures can show the parent of a compound that is named as a salt. Some entries share one result that the patent states for a list of compounds.

Each molecule was assayed against T1, human form of induced nitric oxide synthase (Homo sapiens, UniProt P35228) (assay: activity against the human form of induced nitric oxide synthase, lysate of induced human colon adenocarcinoma cell line DLD1). Conditions: IL-1β and IFN-γ induced, preincubated 1 hour at 37° C., then 1 hour at 37° C., read-out: IC50 (concentration of drug substance which gives 50% enzyme inhibition in the assay).
T1 construct: Nitric oxide synthase is produced by cells in response to interferon; endogenous in cells; host or cells: DLD1 human colon adenocarcinoma cell line (European Collection of Animal Cell Culture, cell line number 90102540), induced with IL-1beta and IFN-gamma; crude lysate
Format: biochemical

Compound	IC50 [µM]
NC1=NC(C2CCC2)Nc2ccccc21 (stereo not drawn) [Example 6, 2-Cyclobutyl-1,2-dihydro-4-quinazolinamine hydrochloride]	< 25
Cn1cccc1C(=O)N1CCC2(CC1)N=C(N)c1c(F)cccc1N2 [Example 133, 5'-Fluoro-1-(1-methyl-1H-pyrrol-2-ylcarbonyl)spiro[piperidine-4,2'(1'H)-quinazoline]-4'-amine hydrochloride]	< 25
NC1=NC2(CCN(C(=O)OCCCc3ccccn3)CC2)Nc2cccc(F)c21 [Example 219, 3-(2-Pyidyl)propyl 4'-amino-5'-fluorospiro[piperidine-4,2'(1'H)-quinazoline]-1-carboxylate hydrochloride]	< 25
NC1=NC2(CCN(C(=O)c3ccc([N+](=O)[O-])cc3)CC2)Nc2cccc(F)c21 [Example 107, 5'-Fluoro-1-(4-nitrobenzoyl)spiro[piperidine-4,2'(1'H)-quinazoline]-4'-amine hydrochloride]	< 25
NC1=NC2(CCN(C(=O)c3ccc(Cl)cc3)CC2)Nc2ccccc21 [Example 60, 1-(4-Chlorobenzoyl)spiro[piperidine-4,2'(1'H)-quinazoline]-4'-amine hydrochloride]	< 25
CC1(C)COC(c2ccc(C(=O)N3CCC4(CC3)N=C(N)c3ccccc3N4)cc2)=N1 [Example 69, 1-(4-(4,4-Dimethyloxazolin-2-yl)benzoyl)spiro[piperidine-4,2'(1'H)-quinazoline]-4'-amine hydrochloride]	< 25
NC1=NC2(CCN(C(=O)c3cc(F)cc(F)c3)CC2)Nc2ccccc21 [Example 75, 1-(3,5-Difluorobenzoyl)spiro[piperidine-4,2'(1'H)-quinazoline]-4'-amine hydrochloride]	< 25
NC1=NC2(CCN(C(=O)OCCc3ccccn3)CC2)Nc2cccc(F)c21 [Example 217, 2-(2-Pyridyl)ethyl 4'-amino-5'-fluorospiro[piperidine-4,2'(1'H)-quinazoline]-1-carboxylate hydrochloride]	< 25
N#Cc1ccc(C(=O)N2CCC3(CC2)N=C(N)c2c(F)cc(F)cc2N3)cc1 [Example 168, 1-(4-Cyanobenzoyl)-5',7'-difluorospiro[piperidine-4,2'(1'H)-quinazoline]-4'-amine hydrochloride]	< 25
CCCC(=O)N1CCC2(CC1)N=C(N)c1ccccc1N2 [Example 98, 1-(1-Oxobutyl)spiro[piperidine-4,2'(1'H)-quinazoline]-4'-amine]	< 25
CS(=O)(=O)c1ccc(C(=O)N2CCC3(CC2)N=C(N)c2c(F)cccc2N3)cc1 [Example 113, 5'-Fluoro-1-((4-methanesulphonyl)benzoyl)spiro[piperidine-4,2'(1'H)-quinazoline]-4'-amine hydrochloride]	< 25
CN1c2cccc(F)c2C(N)=NC12CCN(C(=O)c1ccc(S(N)(=O)=O)cc1)CC2 [Example 161, 1-((4-Aminosulphonyl)benzoyl)-5'-fluoro-1'-methyl-spiro[piperidine-4,2'(1'H)-quinazoline]-4'-amine hydrochloride]	< 25
NC1=NC(C2CCCC2)Nc2ccccc21 (stereo not drawn) [Example 7, 2-Cyclopentyl-1,2-dihydro-4-quinazolinamine hydrochloride]	< 25
COCCOC(=O)N1CCC2(CC1)N=C(N)c1c(F)cccc1N2 [Example 193, 2-methoxyethyl 4'-amino-5'-fluorospiro[piperidine-4,2'-[1'H]-quinazoline]-carboxylate hydrochloride]	< 25
CC1(c2ccco2)N=C(N)c2c(F)cccc2N1 (stereo not drawn) [Example 44, 5-Fluoro-(2-furyl)-1,2-dihydro-2-methyl-4-quinazolinamine hydrochloride]	< 25
NC1=NC(c2ccccc2CO)Nc2ccccc21 (stereo not drawn) [Example 20, 2-(4-Amino-1,2-dihydroguinazolin-2-yl)benzenemethanol hydrochloride]	< 25
CC1(c2ccccc2)N=C(N)c2ccccc2N1 (stereo not drawn) [Example 10, 1.2-Dihydro-2-methyl-2-phenyl-4-quinazolinamine hydrochloride]	< 25
COC(=O)c1ccc(C(=O)N2CCC3(CC2)N=C(N)c2c(F)cccc2N3)cc1 [Example 115, Methyl 4-(4'-Amino-5'-fluorospiro[piperidine-4,2'(1'H)-quinazoline]-1-ylcarbonyl)-benzoate hydrochloride]	< 25
